# According to PubChem BioAssay AID624291 (National Center for Advancing Translational Sciences (NCATS), 2012):
# The campaign covered roughly 350,000 compounds. About 220 (0.063%) were called active. This list was built around the results that the source calls inconclusive (neither active nor inactive); the mix of calls is not that of the screen. Calls come from the whole dose curve; as a rule, active = well fitted activation curve with a large enough effect; inconclusive = small, poorly fitted or top-dose-only effect; inactive = no such curve, though single readings can be large or run the other way. A potency beside an inconclusive call is a rough fit, not a confirmed value.
# Test: qHTS for Activators of Integrin-Mediated Alleviation for Muscular Dystrophy; note: nearly all actives have a fitted effect of over 60% in size;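 for activation: 100% = response of the positive control SU9516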
# Details: alpha7betagal myoblasts, beta-gal FDG fluorescence, 48 h; activation: at 38.3 µM (top of the series)
# Outline: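 Alpha7betagal+/- myoblasts (passage 13) were plated 16-24 hr, then exposed to compounds (1:260 dilution of DMSO stock) for 48 hours at 37C. After MPER lysis, β-galactosidase reporter activity was read as FDG fluorescence (ex 480/em 540) after 30 minutes.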
# Potency is the fitted concentration of half-maximal effect.
Structure (SMILES),Potency,activation
CC(=O)c1cc(CN2CCC(N3CCC(C(=O)NC(C)C)CC3)CC2)cs1,"inconclusive: 5.01 µM [activator, single point]",–
Fc1cc(NCc2ccccc2)nc(NCc2ccccc2)n1,inactive,–
CC1(C)C(=O)OC(c2ccc([N+](=O)[O-])cc2)C(C)(C)C1=O (stereo not given),"inconclusive: 28.2 µM [activator, single point]",–
CSc1ncc(Cl)c(C(=O)Nc2c(C)cccc2C)n1,"inconclusive: 0.794 µM [activator, partial curve, poor fit]",–
Nc1nc(N2CCN(C/C=C/c3ccccc3)CC2)nc2ccccc12,inactive,–
COc1ccc2c(C)cc(SCC(=O)NC3CCCC3)nc2c1,inactive,–
Cc1ccc(/C=C/C(=O)NCCc2ccccc2)o1,"inconclusive: 2 µM [activator, partial curve, poor fit]",–
Cc1cc2oc(=O)sc2cc1NS(=O)(=O)c1cccc2cccnc12,inactive,–
COc1ccc(C(C(=O)NCC2CCCO2)N(C(=O)CNC(=O)c2ccco2)c2ccc(C)c(C)c2)cc1OC (stereo not given),"inconclusive: 12.6 µM [activator, partial curve, poor fit]",–
COc1ccc(NC(=O)c2nc[nH]c2C(=O)Nc2ccccc2C)cc1,inactive,–
COc1ccc(S(=O)(=O)NCCc2cn3nc(C)c(C)nc3n2)cc1,"inconclusive: 2.24 µM [activator, single point]",–
CCn1c(NC(C)=O)c(-c2ccccc2Cl)c(=O)c2ccccc21,"inconclusive: 5.01 µM [activator, single point]",–
CCOc1ccc(NC(=O)COc2ccc(OC)cc2)cc1,"inconclusive: 8.91 µM [activator, single point]",–
COc1cccc(/C=N/NC(=O)c2c(C)nc3ccc(Cl)cn23)c1O,inactive,–
CC(CCc1ccccc1)NC(=O)C(=O)NCCO (stereo not given),"inconclusive: 5.01 µM [activator, single point]",–
COc1ccc(-n2nc(C(=O)NCC(=O)N3CC(C)CC(C)C3)c3ccccc3c2=O)cc1OC (stereo not given),"inconclusive: 28.2 µM [activator, single point]",–
O=C(Nc1ccc(Br)cc1)c1cnc[nH]1,"inconclusive: 28.2 µM [activator, single point]",–
COc1ccc(-c2ccc(=O)n(Cc3cccc(Cl)c3)n2)cc1,inactive,–
CC1(C)Cc2ccccc2-c2nc3n(c(=O)c21)CCCS3,"inconclusive: 2.51 µM [activator, partial curve, poor fit]",–
Oc1ccc2cc(Br)ccc2c1CN1CCCC1,"inconclusive: 5.01 µM [activator, single point]",–
CCN1CCN(CCC(=O)Nc2ccc(C)cc2)CC1,inactive,–
Nc1nc(SCc2ccc(Br)cc2)[nH]c(=O)c1-c1ccccc1,"inconclusive: 5.01 µM [activator, single point]",–
CCOC(=O)C1=C(N)Oc2cc(O)ccc2C1c1ccc(Br)cc1 (stereo not given),"inconclusive: 0.891 µM [activator, single point]",–
COc1ccccc1-c1nc2c3ccccc3nc(=S)n2[nH]1,"inconclusive: 28.2 µM [activator, single point]",–

Structure (SMILES),Potency,activation
COc1ccc(C(=O)Nc2ccc3nc(N4CCN(C)CC4)cc(C)c3c2)c(OC)c1,"inconclusive: 11.2 µM [activator, partial curve, poor fit]",–
CC(=O)Nc1ccc(S(=O)(=O)NNC(=O)CCC(=O)NCc2ccccc2)cc1,"inconclusive: 4.47 µM [activator, single point]",–
O=C(Nc1ccc(F)cc1)C1CCN(C(=O)c2ccc(F)cc2)CC1,inactive,–
O=C(c1ccc(Cl)cc1)C1CCN(Cc2ccccc2)CC1,inactive,–
C/C(CC(=O)NCCc1ccccc1)=N\NC(=O)COc1ccc(Br)cc1,"inconclusive: 2.24 µM [activator, full curve]",–
O=C1c2ccccc2S(=O)(=O)N1CC(O)COc1ccc(Cl)cc1 (stereo not given),"inconclusive: 10 µM [activator, partial curve, poor fit]",–
Cc1cccc(C(=O)Nc2nnc(S(=O)(=O)N3CCC(C)CC3)s2)c1,"inconclusive: 10 µM [activator, partial curve, poor fit]",–
CC1CN(C(=O)CSc2nc(-c3ccccc3)cs2)CC(C)O1 (stereo not given),"inconclusive: 2.24 µM [activator, partial curve, poor fit]",–
O=C(Nc1ccccn1)c1ccc([N+](=O)[O-])cc1Cl,inactive,–
Cc1ccc(NC(=O)C(c2ccccc2)c2ccccc2)nc1,"inconclusive: 2.24 µM [activator, partial curve, poor fit]",–
CC(=O)c1cccc(NC(=O)c2ccc3c(c2)CCCC3)c1,inactive,–
COc1ccc2cc(C(=O)NCc3ccccc3)[nH]c2c1,"inconclusive: 5.01 µM [activator, single point]",–
COCCN(C(=O)CCC(=O)Nc1cc(C)on1)C(C(=O)NC(C)(C)C)c1ccc(OC)cc1 (stereo not given),"inconclusive: 14.1 µM [activator, single point]",–
CCOc1ccccc1CNC(=O)C1CCN(c2nnc(C)c3c(C)n(-c4ccc(C)cc4)nc23)CC1,inactive,–
CC(=O)Nc1ccc(S(=O)(=O)NC2(C(F)(F)F)C(=O)NC(C)=C2C#N)cc1 (stereo not given),"inconclusive: 28.2 µM [activator, single point]",–
COc1ccc(C(=O)NCCCNc2nc3cc(C)cc(C)c3cc2C#N)cc1,inactive,–
CCCCC(CCC(=O)Nc1ccc(C(=O)OCC)cc1)C(=O)O (stereo not given),"inconclusive: 5.01 µM [activator, single point]",–
Cc1ccccc1OCc1nc2ccccc2c(=O)n1N,"inconclusive: 3.16 µM [activator, single point]",–
OCCNc1nc(N2CCOCC2)nc(N2CCOCC2)n1,"inconclusive: 5.62 µM [activator, partial curve, poor fit]",–
O=C(NCCc1ccc(Cl)cc1)C1CCCN1C(=O)Nc1ccccc1 (stereo not given),"inconclusive: 3.98 µM [activator, single point]",–
O=C(C1CCCN(S(=O)(=O)c2ccc(F)cc2)C1)N1CCOCC1 (stereo not given),inactive,–
CCC1CCCCN1C(=S)NC(=O)c1cccs1 (stereo not given),inactive,–
CCOc1ccc(NC(=O)C2CCCN(C)C2)cc1 (stereo not given),inactive,–
Cc1c(OCC(=O)NCCCn2ccnc2)ccc2c3c(c(=O)oc12)CCC3,"inconclusive: 2.51 µM [activator, partial curve]",–

Structure (SMILES),Potency,activation
COc1ccc(CC(=O)Nc2ccccc2C(=O)N2CCCC2)cc1,"inconclusive: 5.01 µM [activator, single point]",–
COc1ccccc1C(=O)Nc1ccnn1C1CCN(C(=O)c2ccoc2)CC1,"inconclusive: 10 µM [activator, partial curve, poor fit]",–
O=C1C=C(Nc2ccc(Cl)cc2)CC(c2ccccc2)C1 (stereo not given),"inconclusive: 28.2 µM [activator, single point]",–
CSc1ccc(/C=N/N2CCN(C)CC2)cc1,"inconclusive: 2 µM [activator, partial curve, poor fit]",–
CC(=O)N1CCN(CC(=O)Nc2cc([N+](=O)[O-])ccc2Cl)CC1,inactive,–
Cc1nc(SC(C)C(=O)NCC2CCCO2)c2cc(-c3ccccc3)sc2n1 (stereo not given),"inconclusive: 0.891 µM [activator, partial curve, poor fit]",–
Cc1ccccc1C1=Nn2c(nnc2-c2ccco2)SC1,"inconclusive: 3.55 µM [activator, single point]",–
CC(Cc1ccccn1)NC(=O)c1ccc(OC2CCN(Cc3ccccn3)CC2)cc1 (stereo not given),"inconclusive: 5.01 µM [activator, single point]",–
COc1cccc(CN(C)S(=O)(=O)c2cccs2)c1,inactive,–
C=CCn1c(SCC(=O)Nc2ccc(C(=O)O)cc2)nc2scc(-c3ccccc3)c2c1=O,"inconclusive: 3.16 µM [activator, partial curve, poor fit]",–
COc1ccc(C(CNC(=O)c2ccc(S(=O)(=O)N3CC(C)CC(C)C3)cc2)N(C)C)cc1 (stereo not given),inactive,–
O=C(OCCOc1ccccc1)c1n[nH]c2ccccc12,"inconclusive: 3.16 µM [activator, single point]",–
CN(C)C(=O)c1cccc(COc2ccc(N3C(N)=NC(N)=NC3(C)C)cc2Cl)c1,–,inconclusive: -56.3% [activator]
COc1ccc(Cn2c(=O)c3c(nc(NCCO)n3C)n(C)c2=O)cc1,inactive,–
O=C(Nc1ccc(F)c(Cl)c1)Nc1cnccn1,"inconclusive: 14.1 µM [activator, single point]",–
Cc1cccc(N2CCN(S(=O)(=O)c3ccc(-c4cc(C)no4)s3)CC2C)c1 (stereo not given),"inconclusive: 28.2 µM [activator, single point]",–
Cc1cc(/C=C2/C(=N)N3C(=NC2=O)SN=C3S(C)(=O)=O)c(C)n1-c1ccc(F)cc1,"inconclusive: 8.91 µM [activator, partial curve, poor fit]",–
CN(c1ccccc1)S(=O)(=O)c1cc(Cl)ccc1Cl,"inconclusive: 1.41 µM [activator, single point]",–
Cc1cc(C)c(C(=O)CSc2nc(C)cc(C)c2C(N)=O)c(C)c1,"inconclusive: 0.891 µM [activator, full curve, poor fit]",–
COc1ccccc1C(=O)NCCCNc1ccc([N+](=O)[O-])cc1,"inconclusive: 11.2 µM [activator, partial curve, poor fit]",–
c1ccc(Nc2nc(NCc3ccco3)c3ccccc3n2)cc1,inactive,–
COc1ccc2nc(NC(=O)CSc3nc(SC)ns3)sc2c1,"inconclusive: 3.55 µM [activator, single point]",–

# Given bar-delimited: six of the compounds above
Structure (SMILES) | Potency | activation
COc1ccccc1C(=O)Nc1ccnn1C1CCN(C(=O)c2ccoc2)CC1 | inconclusive: 10 µM [activator, partial curve, poor fit] | –
CC(=O)N1CCN(CC(=O)Nc2cc([N+](=O)[O-])ccc2Cl)CC1 | inactive | –
COc1cccc(CN(C)S(=O)(=O)c2cccs2)c1 | inactive | –
COc1ccc(C(CNC(=O)c2ccc(S(=O)(=O)N3CC(C)CC(C)C3)cc2)N(C)C)cc1 (stereo not given) | inactive | –
CN(C)C(=O)c1cccc(COc2ccc(N3C(N)=NC(N)=NC3(C)C)cc2Cl)c1 | – | inconclusive: -56.3% [activator]
Cc1cccc(N2CCN(S(=O)(=O)c3ccc(-c4cc(C)no4)s3)CC2C)c1 (stereo not given) | inconclusive: 28.2 µM [activator, single point] | –
